PubChem BioAssay AID602196 | INSERM | 2012
In all, the deposit lists about 23,000 reagents; below is a random part of them. 455 of all reagents (2%) were called active. 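Active includes both protection and sensitisation; some change values fall well beyond the stated -50 to +50 range.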 Further read-outs or replicates are left out here. The record does not give: the amount of reagent.

- Test: 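Knock-downs that protect lung cancer cells from cisplatin or sensitise them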
- Cells: human A549 lung cancer cells
- Reagents: siRNA pair against human genes
- Time to read-out: 48 h transfection before cisplatin; time from cisplatin to read-out not stated
- Challenge: cisplatin at a dose killing half of control-siRNA cells; exact dose and duration not given
- Read-out: 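Shift in cisplatin death relative to control siRNA, from -50 (all cells die) to +50 (no cells die); siRNAs harmful on their own scored 0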
- Direction: two-siRNA summed score (-2 to +2): higher = both siRNAs protect from cisplatin killing; -2 means both sensitise; mean protection from cisplatin (shift in death): higher = protection from cisplatin killing
- Active means: 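siRNAs harmful alone (LDH or WST-1) get 0; others get +1 for less and -1 for more cisplatin killing; genes are active when the two siRNAs give the same sign, summing to ±2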
- Calls: active = both siRNAs shift cisplatin killing the same way; inactive = no consistent shift, or siRNA harmful alone

LINC00924 showed two-siRNA summed score (-2 to +2) = 0; mean protection from cisplatin (shift in death) (%) = 2.4; inactive.
Knock-down of LOC401967 came out at: two-siRNA summed score (-2 to +2) = 1; mean protection from cisplatin (shift in death) (%) = 16.1; inactive.
LY6G5B gave two-siRNA summed score (-2 to +2) = 0; mean protection from cisplatin (shift in death) (%) = 2.1; inactive.
LOC143941 gave two-siRNA summed score (-2 to +2) = -1; mean protection from cisplatin (shift in death) (%) = -7.3; inactive.
Against TENM4 the deposit lists two-siRNA summed score (-2 to +2) = 0; mean protection from cisplatin (shift in death) (%) = 14.1; inactive.
After knock-down of GABRA3, the screen gave two-siRNA summed score (-2 to +2) = 0; mean protection from cisplatin (shift in death) (%) = -5.1; inactive.
For LINC01559 the deposit lists two-siRNA summed score (-2 to +2) = 0; mean protection from cisplatin (shift in death) (%) = 4.7; inactive.
For LOC442031, the entry reads two-siRNA summed score (-2 to +2) = 2; mean protection from cisplatin (shift in death) (%) = 30; active.
For PHACTR3, the entry reads two-siRNA summed score (-2 to +2) = 0; mean protection from cisplatin (shift in death) (%) = 13; inactive.
With knock-down of TOB1, the screen gave two-siRNA summed score (-2 to +2) = 0; mean protection from cisplatin (shift in death) (%) = -12.2; inactive.
For ACKR4, the values are two-siRNA summed score (-2 to +2) = 0; mean protection from cisplatin (shift in death) (%) = 2.9; inactive.
Depletion of RUSF1 came out at: two-siRNA summed score (-2 to +2) = 0; mean protection from cisplatin (shift in death) (%) = 11.4; inactive.
NPRL3 scored two-siRNA summed score (-2 to +2) = 0; mean protection from cisplatin (shift in death) (%) = 1.8; inactive.
MRI1 scored two-siRNA summed score (-2 to +2) = 0; mean protection from cisplatin (shift in death) (%) = -2; inactive.
RGS17 gave two-siRNA summed score (-2 to +2) = 0; mean protection from cisplatin (shift in death) (%) = -14.2; inactive.

Part of the list above, set out differently:
{"target": "RUSF1", "two-siRNA summed score (-2 to +2)": 0, "mean protection from cisplatin (shift in death) (%)": 11.4, "outcome": "inactive"}
{"target": "NPRL3", "two-siRNA summed score (-2 to +2)": 0, "mean protection from cisplatin (shift in death) (%)": 1.8, "outcome": "inactive"}
{"target": "MRI1", "two-siRNA summed score (-2 to +2)": 0, "mean protection from cisplatin (shift in death) (%)": -2, "outcome": "inactive"}
{"target": "RGS17", "two-siRNA summed score (-2 to +2)": 0, "mean protection from cisplatin (shift in death) (%)": -14.2, "outcome": "inactive"}

The results go on:
With knock-down of SP140, the screen gave two-siRNA summed score (-2 to +2) = 0; mean protection from cisplatin (shift in death) (%) = -8.5; inactive.
For PLPBP, the values are two-siRNA summed score (-2 to +2) = 1; mean protection from cisplatin (shift in death) (%) = 7.1; inactive.
Against GOSR2 the deposit lists two-siRNA summed score (-2 to +2) = -1; mean protection from cisplatin (shift in death) (%) = -2.8; inactive.
POTEE showed two-siRNA summed score (-2 to +2) = 0; mean protection from cisplatin (shift in death) (%) = 12.5; inactive.
After knock-down of LOC342972, the record shows two-siRNA summed score (-2 to +2) = 2; mean protection from cisplatin (shift in death) (%) = 18; active.
LOC400999 scored two-siRNA summed score (-2 to +2) = 0; mean protection from cisplatin (shift in death) (%) = -2.6; inactive.
FAT4 scored two-siRNA summed score (-2 to +2) = 0; mean protection from cisplatin (shift in death) (%) = -6.3; inactive.
Silencing of LOC146712 came out at: two-siRNA summed score (-2 to +2) = 0; mean protection from cisplatin (shift in death) (%) = -1.6; inactive.
Silencing of ANP32B gave: two-siRNA summed score (-2 to +2) = 1; mean protection from cisplatin (shift in death) (%) = 13.9; inactive.
With knock-down of EGR1 the results were two-siRNA summed score (-2 to +2) = 0; mean protection from cisplatin (shift in death) (%) = 9.1; inactive.
Against PCDHA6, the values are two-siRNA summed score (-2 to +2) = 0; mean protection from cisplatin (shift in death) (%) = -4; inactive.
For YBX3 the deposit lists two-siRNA summed score (-2 to +2) = 0; mean protection from cisplatin (shift in death) (%) = 18.6; inactive.
HLA-B scored two-siRNA summed score (-2 to +2) = 0; mean protection from cisplatin (shift in death) (%) = 9.2; inactive.
REP15 scored two-siRNA summed score (-2 to +2) = 0; mean protection from cisplatin (shift in death) (%) = 3; inactive.
TRIM59 showed two-siRNA summed score (-2 to +2) = 0; mean protection from cisplatin (shift in death) (%) = -3.9; inactive.
Silencing of H2AC15 came out at: two-siRNA summed score (-2 to +2) = 1; mean protection from cisplatin (shift in death) (%) = 18.1; inactive.
